# Melanoma cell counts after drug treatment

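Human melanoma cells were exposed to a pair of drugs for 72 h in 1,536-well plates and read by automated microscopy after fixing and staining. Values are the number of DAPI-stained nuclei as a percentage of the DMSO control: 100 is no effect, lower means fewer cells. Concentrations were fixed for each drug; these are the lower of two levels, a fifth of the higher. No replicate spread is given; individual values may be noisy.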 An unselected part of the screen is shown. An entry leaves out what has no value listed here.

Compounds and concentrations:
nilutamide, 1 µM: CC1(C)NC(=O)N(c2ccc([N+](=O)[O-])c(C(F)(F)F)c2)C1=O
KU-0063794, 0.02 µM: COc1ccc(-c2ccc3c(N4CCOCC4)nc(N4C[C@@H](C)O[C@@H](C)C4)nc3n2)cc1CO
GSK0660, 1 µM: COC(=O)c1sccc1S(=O)(=O)Nc1ccc(Nc2ccccc2)cc1OC
U73122, 0.4 µM: COc1ccc2c(c1)CCC1C2CCC2(C)C(NCCCCCCN3C(=O)C=CC3=O)CCC12 (centres undefined)
STA-4783, 0.006 µM: CN(NC(=O)CC(=O)NN(C)C(=S)c1ccccc1)C(=S)c1ccccc1
ENMD-2076, 0.04 µM: Cc1cc(Nc2cc(N3CCN(C)CC3)nc(/C=C/c3ccccc3)n2)n[nH]1
OSI-906, 0.4 µM: C[C@]1(O)C[C@@H](c2nc(-c3ccc4ccc(-c5ccccc5)nc4c3)c3c(N)nccn32)C1
TCS401, 1.67 µM: O=C(O)C(=O)Nc1sc2c(c1C(=O)O)CCNC2
OSU-03012, 1 µM: NCC(=O)Nc1ccc(-n2nc(C(F)(F)F)cc2-c2ccc3c(ccc4ccccc43)c2)cc1
GW0742, 2 µM: Cc1cc(SCc2sc(-c3ccc(C(F)(F)F)c(F)c3)nc2C)ccc1OCC(=O)O
GW441756, 0.4 µM: Cn1cc(/C=C2\C(=O)Nc3cccnc32)c2ccccc21

{"combination": "ENMD-2076 + nilutamide", "COLO 829": 112, "LB2518-MEL": 93.7, "COLO 792": 79.9, "C32": 92.9, "IST-MEL1": 103, "A375": 92.0}
{"combination": "U73122 + OSU-03012", "COLO 829": 80.0, "LB2518-MEL": 113, "COLO 792": 89.5, "C32": 104, "IST-MEL1": 98.4, "A375": 14.0}
{"combination": "OSU-03012 + GW441756", "COLO 829": 82.2, "LB2518-MEL": 99.3, "COLO 792": 109, "C32": 92.9, "IST-MEL1": 97.4, "A375": 19.0}
{"combination": "OSU-03012 + TCS401", "COLO 829": 98.6, "LB2518-MEL": 102, "COLO 792": 87.6, "C32": 93.1, "IST-MEL1": 107, "A375": 18.8}
{"combination": "STA-4783 + ENMD-2076", "COLO 829": 59.4, "COLO 792": 66.9, "C32": 84.5, "IST-MEL1": 88.3, "A375": 48.1}
{"combination": "TCS401 + nilutamide", "COLO 829": 88.1, "LB2518-MEL": 103, "COLO 792": 108, "C32": 114, "IST-MEL1": 110, "A375": 91.3}
{"combination": "GSK0660 + OSI-906", "COLO 829": 95.7, "LB2518-MEL": 103, "COLO 792": 87.9, "C32": 96.2, "IST-MEL1": 104}
{"combination": "KU-0063794 + OSI-906", "COLO 829": 96.7, "COLO 792": 90.5, "C32": 95.4, "IST-MEL1": 94.5}
{"combination": "U73122 + OSI-906", "COLO 829": 101, "LB2518-MEL": 91.4, "COLO 792": 84.4, "C32": 98.0, "IST-MEL1": 102}
{"combination": "STA-4783 + TCS401", "COLO 829": 70.3, "LB2518-MEL": 98.6, "COLO 792": 67.0, "C32": 73.8, "IST-MEL1": 84.9, "A375": 34.0}
{"combination": "KU-0063794 + GW0742", "COLO 829": 96.0, "LB2518-MEL": 105, "COLO 792": 103, "C32": 97.8, "IST-MEL1": 99.2, "A375": 111}
{"combination": "ENMD-2076 + GSK0660", "COLO 829": 77.5, "LB2518-MEL": 120, "COLO 792": 97.7, "C32": 100, "IST-MEL1": 105}
{"combination": "STA-4783 + nilutamide", "COLO 829": 73.7, "LB2518-MEL": 71.9, "COLO 792": 62.9, "C32": 84.5, "IST-MEL1": 80.0, "A375": 29.9}
{"combination": "GSK0660 + GW0742", "COLO 829": 83.6, "LB2518-MEL": 115, "COLO 792": 103, "C32": 91.2, "IST-MEL1": 98.8, "A375": 95.6}
{"combination": "GSK0660 + nilutamide", "COLO 829": 105, "LB2518-MEL": 102, "COLO 792": 98.4, "C32": 106, "IST-MEL1": 106, "A375": 113}
{"combination": "GW441756 + nilutamide", "COLO 829": 88.3, "LB2518-MEL": 89.2, "COLO 792": 104, "C32": 84.0, "IST-MEL1": 94.8, "A375": 120}
{"combination": "nilutamide + KU-0063794", "COLO 829": 110, "LB2518-MEL": 104, "COLO 792": 105, "C32": 114, "IST-MEL1": 103, "A375": 91.6}
{"combination": "OSU-03012 + GW0742", "COLO 829": 78.5, "LB2518-MEL": 98.9, "COLO 792": 97.9, "C32": 98.9, "IST-MEL1": 98.4, "A375": 12.8}
{"combination": "STA-4783 + GW441756", "COLO 829": 52.5, "LB2518-MEL": 67.0, "COLO 792": 68.4, "C32": 49.6, "IST-MEL1": 66.4, "A375": 11.0}
{"combination": "GW0742 + TCS401", "COLO 829": 99.5, "LB2518-MEL": 96.7, "COLO 792": 102, "C32": 94.3, "IST-MEL1": 93.6, "A375": 105}
{"combination": "OSI-906 + TCS401", "COLO 829": 109, "LB2518-MEL": 103, "COLO 792": 110, "C32": 106, "IST-MEL1": 106}
{"combination": "nilutamide + U73122", "COLO 829": 89.1, "LB2518-MEL": 105, "COLO 792": 97.9, "C32": 99.4, "IST-MEL1": 101, "A375": 87.8}
{"combination": "GW441756 + OSI-906", "COLO 829": 118, "COLO 792": 86.2, "C32": 103, "IST-MEL1": 111}
{"combination": "GW0742 + STA-4783", "COLO 829": 89.5, "LB2518-MEL": 110, "COLO 792": 106, "C32": 97.0, "IST-MEL1": 92.1, "A375": 8.6}
{"combination": "OSU-03012 + GSK0660", "COLO 829": 70.1, "LB2518-MEL": 104, "COLO 792": 97.5, "C32": 125, "IST-MEL1": 108, "A375": 19.6}
{"combination": "OSI-906 + OSU-03012", "COLO 829": 80.5, "LB2518-MEL": 91.3, "COLO 792": 80.0, "C32": 113, "IST-MEL1": 83.9, "A375": 13.6}
{"combination": "ENMD-2076 + U73122", "COLO 829": 90.6, "LB2518-MEL": 75.1, "COLO 792": 92.4, "C32": 95.9, "IST-MEL1": 99.2}
{"combination": "GSK0660 + STA-4783", "COLO 829": 70.6, "LB2518-MEL": 79.5, "COLO 792": 77.7, "C32": 65.8, "IST-MEL1": 77.0, "A375": 21.2}
{"combination": "GW0742 + nilutamide", "COLO 829": 112, "LB2518-MEL": 95.9, "COLO 792": 113, "C32": 92.0, "IST-MEL1": 103, "A375": 97.6}
{"combination": "KU-0063794 + ENMD-2076", "COLO 829": 82.0, "LB2518-MEL": 99.6, "COLO 792": 92.0, "C32": 85.5, "IST-MEL1": 103}
{"combination": "TCS401 + ENMD-2076", "COLO 829": 108, "LB2518-MEL": 115, "COLO 792": 96.6, "C32": 84.8, "IST-MEL1": 97.9}
{"combination": "STA-4783 + KU-0063794", "COLO 829": 69.7, "LB2518-MEL": 87.0, "COLO 792": 71.0, "C32": 82.5, "IST-MEL1": 88.5, "A375": 32.2}
{"combination": "ENMD-2076 + GW441756", "COLO 829": 91.7, "LB2518-MEL": 115, "COLO 792": 93.6, "C32": 97.6, "IST-MEL1": 93.1}
{"combination": "U73122 + GW0742", "COLO 829": 110, "LB2518-MEL": 115, "COLO 792": 107, "C32": 99.1, "IST-MEL1": 101, "A375": 84.7}
{"combination": "nilutamide + OSI-906", "COLO 829": 107, "LB2518-MEL": 86.5, "COLO 792": 98.4, "C32": 105, "IST-MEL1": 90.6, "A375": 63.3}
{"combination": "ENMD-2076 + OSU-03012", "COLO 829": 85.9, "COLO 792": 98.4, "C32": 102, "IST-MEL1": 95.6, "A375": 23.1}
{"combination": "KU-0063794 + OSU-03012", "COLO 829": 74.0, "LB2518-MEL": 108, "COLO 792": 87.2, "C32": 105, "IST-MEL1": 103, "A375": 16.9}
{"combination": "STA-4783 + U73122", "COLO 829": 97.2, "LB2518-MEL": 104, "COLO 792": 98.6, "C32": 97.8, "IST-MEL1": 97.6, "A375": 110}

Repeated from the top, 5 entries:

{"combination": "ENMD-2076 + nilutamide", "COLO 829": 112, "LB2518-MEL": 93.7, "COLO 792": 79.9, "C32": 92.9, "IST-MEL1": 103, "A375": 92.0}
{"combination": "U73122 + OSU-03012", "COLO 829": 80.0, "LB2518-MEL": 113, "COLO 792": 89.5, "C32": 104, "IST-MEL1": 98.4, "A375": 14.0}
{"combination": "OSU-03012 + GW441756", "COLO 829": 82.2, "LB2518-MEL": 99.3, "COLO 792": 109, "C32": 92.9, "IST-MEL1": 97.4, "A375": 19.0}
{"combination": "OSU-03012 + TCS401", "COLO 829": 98.6, "LB2518-MEL": 102, "COLO 792": 87.6, "C32": 93.1, "IST-MEL1": 107, "A375": 18.8}
{"combination": "STA-4783 + ENMD-2076", "COLO 829": 59.4, "COLO 792": 66.9, "C32": 84.5, "IST-MEL1": 88.3, "A375": 48.1}

Values as published with doi:10.1371/journal.pone.0140310, rounded.